{"source": "PubChem BioAssay AID1259254 (NCATS, 2017)", "assay": "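Gene knock-downs that lead to re-replication, shown by excess G2 DNA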 (primary screen)", "cell system": "human HCT116 colorectal cancer cells", "reagents": "single siRNA against human genes", "time to read-out": "3 days", "measured": "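Imaged Hoechst DNA stain sorts each cell into a cycle phase by DNA amount; per plate, G2 fraction set to 0% for non-targeting and 100% for GMNN siRNA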", "direction": "G2 robust z-score and G2 cells, % of GMNN control: higher = more G2 cells, more excess DNA replication", "rule for the call": "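Active siRNAs have a G2 robust z of 5 or more median absolute deviations over the median, which in these data means about 38% or higher of GMNN control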", "note": "The deposit covers about 59,000 reagents; shown is a part drawn at random. About 1,550 of them (2.6%) were called active. 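G2 share is only a proxy for re-replication; each gene was hit by three separate siRNAs, and active genes were retested.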 A number with no mark means an inactive call. The numbers tell different reagents against one gene apart. Not all columns of the deposit are shown. Reagent sequences are not shown. Not given: the amount of reagent."}
{"gene knocked down":"MRPL44 (mitochondrial ribosomal protein L44)","reagent no.":1,"G2 robust z-score":-0.888,"G2 cells, % of GMNN control":-3.28}
{"gene knocked down":"MRPL44 (mitochondrial ribosomal protein L44)","reagent no.":2,"G2 robust z-score":0.773,"G2 cells, % of GMNN control":8.41}
{"gene knocked down":"MRPL44 (mitochondrial ribosomal protein L44)","reagent no.":3,"G2 robust z-score":-0.445,"G2 cells, % of GMNN control":-0.162}
{"gene knocked down":"TOMM20 (translocase of outer mitochondrial membrane 20)","reagent no.":1,"G2 robust z-score":1.74,"G2 cells, % of GMNN control":15.2}
{"gene knocked down":"TOMM20 (translocase of outer mitochondrial membrane 20)","reagent no.":2,"G2 robust z-score":2.02,"G2 cells, % of GMNN control":17.2}
{"gene knocked down":"TOMM20 (translocase of outer mitochondrial membrane 20)","reagent no.":3,"G2 robust z-score":-0.314,"G2 cells, % of GMNN control":0.761}
{"gene knocked down":"DPPA4 (developmental pluripotency associated 4)","reagent no.":1,"G2 robust z-score":-0.0394,"G2 cells, % of GMNN control":2.69}
{"gene knocked down":"DPPA4 (developmental pluripotency associated 4)","reagent no.":2,"G2 robust z-score":0.0106,"G2 cells, % of GMNN control":3.04}
{"gene knocked down":"DPPA4 (developmental pluripotency associated 4)","reagent no.":3,"G2 robust z-score":-0.769,"G2 cells, % of GMNN control":-2.44}
{"gene knocked down":"DNAAF8 (dynein axonemal assembly factor 8)","reagent no.":1,"G2 robust z-score":0.212,"G2 cells, % of GMNN control":4.46}
{"gene knocked down":"DNAAF8 (dynein axonemal assembly factor 8)","reagent no.":2,"G2 robust z-score":0.199,"G2 cells, % of GMNN control":4.37}
{"gene knocked down":"DNAAF8 (dynein axonemal assembly factor 8)","reagent no.":3,"G2 robust z-score":0.566,"G2 cells, % of GMNN control":6.95}
{"gene knocked down":"CD7 (CD7 molecule)","reagent no.":1,"G2 robust z-score":-0.605,"G2 cells, % of GMNN control":-1.29}
{"gene knocked down":"CD7 (CD7 molecule)","reagent no.":2,"G2 robust z-score":-1.07,"G2 cells, % of GMNN control":-4.54}
{"gene knocked down":"CD7 (CD7 molecule)","reagent no.":3,"G2 robust z-score":0.465,"G2 cells, % of GMNN control":6.24}
{"gene knocked down":"CD1D (CD1d molecule)","reagent no.":1,"G2 robust z-score":0.13,"G2 cells, % of GMNN control":3.88}
{"gene knocked down":"CD1D (CD1d molecule)","reagent no.":2,"G2 robust z-score":-0.442,"G2 cells, % of GMNN control":-0.146}
{"gene knocked down":"CD1D (CD1d molecule)","reagent no.":3,"G2 robust z-score":0.52,"G2 cells, % of GMNN control":6.63}

Part of the list above, set out differently.
| gene knocked down | reagent no. | G2 robust z-score | G2 cells, % of GMNN control |
| --- | --- | --- | --- |
| TOMM20 (translocase of outer mitochondrial membrane 20) | 1 | 1.74 | 15.2 |
| TOMM20 (translocase of outer mitochondrial membrane 20) | 2 | 2.02 | 17.2 |

Additional entries follow.
{"gene knocked down":"CLIC6 (CLIC family member 6)","reagent no.":1,"G2 robust z-score":2.29,"G2 cells, % of GMNN control":19.1}
{"gene knocked down":"CLIC6 (CLIC family member 6)","reagent no.":2,"G2 robust z-score":-0.389,"G2 cells, % of GMNN control":0.228}
{"gene knocked down":"CLIC6 (CLIC family member 6)","reagent no.":3,"G2 robust z-score":0.485,"G2 cells, % of GMNN control":6.38}
{"gene knocked down":"FSIP2 (fibrous sheath interacting protein 2)","reagent no.":1,"G2 robust z-score":0.977,"G2 cells, % of GMNN control":9.84}
{"gene knocked down":"FSIP2 (fibrous sheath interacting protein 2)","reagent no.":2,"G2 robust z-score":1.66,"G2 cells, % of GMNN control":14.6}
{"gene knocked down":"FSIP2 (fibrous sheath interacting protein 2)","reagent no.":3,"G2 robust z-score":0.397,"G2 cells, % of GMNN control":5.76}
{"gene knocked down":"FSIP2 (fibrous sheath interacting protein 2)","reagent no.":4,"G2 robust z-score":-0.791,"G2 cells, % of GMNN control":-2.6}
{"gene knocked down":"FSIP2 (fibrous sheath interacting protein 2)","reagent no.":5,"G2 robust z-score":-0.538,"G2 cells, % of GMNN control":-0.817}
{"gene knocked down":"FSIP2 (fibrous sheath interacting protein 2)","reagent no.":6,"G2 robust z-score":-0.382,"G2 cells, % of GMNN control":0.281}
